Measurements reported in PubChem BioAssay AID1224826 (NIAID, 2016).
Aim: 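Knock-downs that raise or lower Tnf reporter signal after endotoxin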 (primary screen). System: RAW264.7 G9 macrophages from mouse bearing reporters for p65 (GFP) and the Tnf promoter (mCherry). Knock-down reagent: siRNA pool against mouse genes, 100 nM. Time to read-out: 16 h of LPS stimulation, after 2 days of siRNA transfection. Treatment: bacterial lipopolysaccharide (Salmonella minnesota R595), 10 ng/ml. Measured: 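Imaged Tnf reporter mCherry in nuclei, minus background, normalised per plate to the median and expressed as robust z-scores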. Reading the numbers: Tnf reporter robust z-score: higher = stronger Tnf promoter reporter signal after LPS; Tnf reporter intensity: higher = stronger Tnf promoter reporter signal. Active means: 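Called active when robust z-score is at most -1.3, matching the median of the Tlr4 knock-down control, or over 3; control wells and wells with under 50 cells never active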. Meaning of the calls: active = Tnf reporter clearly lowered or raised; inactive = no clear change in Tnf reporter.
This is one part, drawn at random, of about 17,000 reagents tested. About 1,110 of all reagents (6.6%) count as active. 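Active means lowered or raised reporter signal; replicate intensities are raw and not normalised per plate.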 The numbers tell different reagents against one gene apart. Reagent sequences are not shown.

gene symbol,pool no.,Tnf reporter robust z-score,fewer than 50 cells in well,"Tnf reporter intensity, replicate 1","Tnf reporter intensity, replicate 2",outcome
Ptges3,1,-0.23,enough cells in well,269,89.5,inactive
Kcnk5,1,1.28,enough cells in well,276,188,inactive
Timm10,1,,fewer than 50 cells per well; well left out of calls,167,118,inactive
Vars1,1,2.25,enough cells in well,198,165,inactive
Adtrp,1,,fewer than 50 cells per well; well left out of calls,130,118,inactive
A2m,1,1.7,enough cells in well,237,260,inactive
Exoc3l2,1,4.98,enough cells in well,534,337,active
Or2d2,1,-0.26,enough cells in well,123,106,inactive
Myo9b,1,0.76,enough cells in well,294,288,inactive
Nmrk1,1,-1.08,enough cells in well,134,129,inactive
Eif4e3,1,,fewer than 50 cells per well; well left out of calls,91.7,34,inactive
Btbd16,1,3.57,enough cells in well,421,247,active
Foxl1,1,0.12,enough cells in well,274,240,inactive
Capg,1,-0.24,enough cells in well,127,157,inactive
Rab24,1,-1.45,enough cells in well,70.5,61.9,active
Pus3,1,0.3,enough cells in well,226,92.6,inactive
Or5ak25,1,-0.8,enough cells in well,92,112,inactive
Lingo2,1,-0.08,enough cells in well,180,147,inactive
A630023P12Rik,1,1.67,enough cells in well,254,255,inactive
Was,1,-0.8,enough cells in well,196,162,inactive
Cib2,1,-0.68,enough cells in well,216,135,inactive
Slc34a2,1,,fewer than 50 cells per well; well left out of calls,57.2,41.7,inactive
Mesd,1,-1.13,enough cells in well,128,155,inactive
Insl6,1,-0.37,enough cells in well,200,139,inactive
Sh3bp5,1,-1.26,enough cells in well,168,117,inactive
Ube2t,1,0.2,enough cells in well,211,121,inactive
Cyp2d26,1,-0.38,enough cells in well,154,160,inactive
Prr13,1,2.73,enough cells in well,407,175,inactive
Dnah14,1,-0.01,enough cells in well,178,145,inactive
Arid3a,1,0.79,enough cells in well,194,237,inactive
Astl,1,0.94,enough cells in well,206,247,inactive
Ripor1,1,,fewer than 50 cells per well; well left out of calls,107,60.3,inactive
Tdrd7,1,-0.2,enough cells in well,252,103,inactive
Npbwr1,1,-0.11,enough cells in well,203,293,inactive
Vamp4,1,0.32,enough cells in well,149,85.1,inactive
Uxt,1,0.15,enough cells in well,117,100,inactive
Gsg1,1,-1.19,enough cells in well,183,73.9,inactive
Cyp3a41a,1,0.25,enough cells in well,204,187,inactive
Kdr,1,1.75,enough cells in well,295,271,inactive
Abhd8,1,-0.89,enough cells in well,114,106,inactive
Cmtm2a,1,1.97,enough cells in well,250,235,inactive
Xpo7,1,1.29,enough cells in well,95.9,185,inactive
Xpo7,2,,fewer than 50 cells per well; well left out of calls,160,30.2,inactive
Hus1,1,-1.13,enough cells in well,142,120,inactive
Atp6v0a1,1,0.69,enough cells in well,192,221,inactive
Or51f2,1,,fewer than 50 cells per well; well left out of calls,53.9,57.3,inactive
Vash2,1,2.05,enough cells in well,291,277,inactive
5830402J09,1,-0.28,enough cells in well,191,104,inactive
C230012O17Rik,1,0.59,enough cells in well,149,278,inactive
Rpl35,1,-0.47,enough cells in well,117,97.7,inactive
Srsf2,1,-0.7,enough cells in well,205,171,inactive
Or5k15,1,0.68,enough cells in well,225,135,inactive
Atl3,1,-1.35,enough cells in well,112,65.7,active
Oog2,1,-0.88,enough cells in well,118,80,inactive
Tnfrsf4,1,-0.01,enough cells in well,256,119,inactive
Ndufb4,1,-0.39,enough cells in well,218,80.2,inactive
Gpr161,1,-0.73,enough cells in well,132,277,inactive
Hsp90b1,1,-1.34,enough cells in well,139,111,active

Part of the list above in another layout:
{"gene symbol": "Foxl1", "pool no.": 1, "Tnf reporter robust z-score": 0.12, "fewer than 50 cells in well": "enough cells in well", "Tnf reporter intensity, replicate 1": 274, "Tnf reporter intensity, replicate 2": 240, "outcome": "inactive"}
{"gene symbol": "Capg", "pool no.": 1, "Tnf reporter robust z-score": -0.24, "fewer than 50 cells in well": "enough cells in well", "Tnf reporter intensity, replicate 1": 127, "Tnf reporter intensity, replicate 2": 157, "outcome": "inactive"}
{"gene symbol": "Rab24", "pool no.": 1, "Tnf reporter robust z-score": -1.45, "fewer than 50 cells in well": "enough cells in well", "Tnf reporter intensity, replicate 1": 70.5, "Tnf reporter intensity, replicate 2": 61.9, "outcome": "active"}
{"gene symbol": "Pus3", "pool no.": 1, "Tnf reporter robust z-score": 0.3, "fewer than 50 cells in well": "enough cells in well", "Tnf reporter intensity, replicate 1": 226, "Tnf reporter intensity, replicate 2": 92.6, "outcome": "inactive"}
{"gene symbol": "Or5ak25", "pool no.": 1, "Tnf reporter robust z-score": -0.8, "fewer than 50 cells in well": "enough cells in well", "Tnf reporter intensity, replicate 1": 92, "Tnf reporter intensity, replicate 2": 112, "outcome": "inactive"}
{"gene symbol": "Lingo2", "pool no.": 1, "Tnf reporter robust z-score": -0.08, "fewer than 50 cells in well": "enough cells in well", "Tnf reporter intensity, replicate 1": 180, "Tnf reporter intensity, replicate 2": 147, "outcome": "inactive"}
{"gene symbol": "A630023P12Rik", "pool no.": 1, "Tnf reporter robust z-score": 1.67, "fewer than 50 cells in well": "enough cells in well", "Tnf reporter intensity, replicate 1": 254, "Tnf reporter intensity, replicate 2": 255, "outcome": "inactive"}
{"gene symbol": "Was", "pool no.": 1, "Tnf reporter robust z-score": -0.8, "fewer than 50 cells in well": "enough cells in well", "Tnf reporter intensity, replicate 1": 196, "Tnf reporter intensity, replicate 2": 162, "outcome": "inactive"}
{"gene symbol": "Cib2", "pool no.": 1, "Tnf reporter robust z-score": -0.68, "fewer than 50 cells in well": "enough cells in well", "Tnf reporter intensity, replicate 1": 216, "Tnf reporter intensity, replicate 2": 135, "outcome": "inactive"}
